These results are taken from the supplement of paper PMC5249140, “Delineating Substrate Diversity of Disparate Short-Chain Dehydrogenase Reductase from Debaryomyces hansenii” (PLoS ONE, 2017).

Single values are uncertain, as repeats are few or missing.

The test system of the assay is DHK short-chain dehydrogenase reductase (Debaryomyces hansenii, Q6BTD7). Nature of the assay: apparent turnover number kcat for ketone reduction (NADPH consumption, 100 uM substrate) (s-1); higher = faster reduction of the ketone by the enzyme. The following applies: substrate concentration 100 µM; NADPH 100 µM; pH 7.4; 25 °C. Here is the method:
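Purified N-His6 DHK (unannotated SDR, Debaryomyces hansenii) was screened against a prochiral ketone library: 100 uM substrate, 100 uM NADPH, 1% BSA, 4% DMSO in 100 mM sodium phosphate / 100 mM NaCl pH 7.4 at 25 C, ~27 nM enzyme. Rate was followed by NADPH depletion at 340 nm and reported as apparent kcat (s-1) at a single substrate concentration; no replicates stated.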
As for `COc1cc(C(C)=O)ccc1Oc1ncnc(N)c1[N+](=O)[O-]`, the “apparent turnover number kcat” value was 5.71.

For `Cc1cc(=O)oc(C)c1C(=O)OCC(=O)c1ccc([N+](=O)[O-])cc1`, the “apparent turnover number kcat” value was found to be 4.27. The figure for `Cc1cc(C(=O)COC(=O)C2COc3ccccc3O2)c(C)n1C` (stereo not given) is 3.72; for `CC(=O)c1ccc(S(=O)(=O)Nc2ccccc2C(N)=O)cc1` it is 4.74; for `CN1C(=O)C(O)=C(C(=O)c2ccc(Br)cc2)C1c1ccccc1[N+](=O)[O-]` (stereo not given) it is 5.57.

With `CC(=O)c1ccc(NC(=O)CSc2nc3[nH]ncc3c(=O)[nH]2)cc1`, the “apparent turnover number kcat” value worked out at 4.38. The figure for `COc1ccc(C2C(C(=O)c3ccc(Cl)cc3)=C(O)C(=O)N2C)cc1` (stereo not given) is 4.58.

In the case of `Cc1[nH]c2ccccc2c1C(=O)C(C)OC(=O)c1ccccc1O` (stereo not given), the “apparent turnover number kcat” value stood at 6.89.

For `O=C(COc1ccc2c(-c3ccccc3)cc(=O)oc2c1)c1ccc2c(c1)OCO2`, the “apparent turnover number kcat” value amounted to 2.96.

Turning to `Nc1no[n+]([O-])c1C(=O)CSc1nnnn1-c1ccccc1`, the “apparent turnover number kcat” value was determined as 0.553. The same measure for `Cc1ccc(C(=O)C2=C(O)C(=O)N(CC(=O)[O-])C2c2cccc([N+](=O)[O-])c2)cc1` (stereo not given): 6.12.

Take `Cc1cc(C(=O)n2cc(C(=O)c3ccccc3O)cn2)c(C)o1`: the “apparent turnover number kcat” value came to 7.07.

Turning to `Cc1cccc(-c2nnc(SCC(=O)c3ccc(O)cc3O)n2C)c1`, the “apparent turnover number kcat” value turned out to be 5.94.

On to `COc1ccc(O)c(C(=O)c2cnc3ccc4ccccc4c3c2)c1`, for which the “apparent turnover number kcat” value worked out at 3.53. Turning to `O=C(Cn1cc(C(=O)c2ccccc2)c2ccccc21)NCc1ccc2c(c1)OCO2`, the “apparent turnover number kcat” value is 3.43. As to `O=C(CCc1ccccc1)OCC(=O)c1ccc([N+](=O)[O-])cc1`, the “apparent turnover number kcat” value worked out at 4.07.

On to `COc1cccc(NC(=O)CC(=O)c2ccc([N+](=O)[O-])cc2)c1`, for which the “apparent turnover number kcat” value is 4.88. The same measure for `Cc1ccc(O)c(C(=O)c2cnc3cc4c(cc3c2)OCO4)c1`: 0.401; for `O=C(CN1C(=O)c2ccc(Br)cc2C1=O)OCC(=O)c1ccc(Cl)cc1`: 2.35.

For `O=C1c2ccccc2C(=O)C1c1cc(O)nc2c1ccc1ccccc12`, the “apparent turnover number kcat” value came out at 3.66. With `Cc1sc2ncnc(SCC(=O)c3ccc(O)cc3O)c2c1C`, the “apparent turnover number kcat” value stood at 3.55.

On to `CC(=O)C1=C(O)C(=O)N(c2cccc(C)c2)C1c1cccc([N+](=O)[O-])c1` (stereo not given), for which the “apparent turnover number kcat” value amounted to 5.66. Take `CC(=O)c1c(C)[nH]c(C(=O)COC(=O)c2nccnc2N)c1C`: the “apparent turnover number kcat” value was determined as 5.25.

Take `Cc1oc2c(c1C(=O)c1ccc(Br)cc1)C(=O)C(=O)c1ccccc1-2`: the “apparent turnover number kcat” value is 3.52. Regarding `CC(=O)c1cccc(OC(C)C(=O)Nc2ccc3c(c2)OCCO3)c1` (stereo not given), the “apparent turnover number kcat” value stood at 5.65. For the compound `CC(=O)c1cccc(N(CC(=O)N2CCCCCC2)S(C)(=O)=O)c1`, the “apparent turnover number kcat” value is 4.09. For `Cc1ccc(-c2cc3ncc(C(=O)c4cc(C)ccc4O)cn3n2)cc1`, the “apparent turnover number kcat” value came to 4.88. The same measure for `CC(=O)N(C1=C(Cl)C(=O)c2ccccc2C1=O)c1cccc(Br)c1`: 6.28; for `COC(=O)c1cc2cc(CC(=O)c3ccc(O)cc3O)ccc2o1`: 0.311. The figure for `O=C(CCNc1ccc(Cc2ccncc2)cc1)c1cccc([N+](=O)[O-])c1` is 3; for `COCCN1C(=O)c2ccc(C(=O)c3ccc([N+](=O)[O-])cc3)cc2C1=O` it is 7.01; for `Cc1c(NC(=O)CN2C(=O)C(=O)c3ccccc32)c(=O)n(-c2ccccc2)n1C` it is 4.04. In the case of `COc1ccc(Cl)cc1NC(=O)CNc1ccccc1C(C)=O`, the “apparent turnover number kcat” value was determined as 3.54. Turning to `O=C(CN1C(=O)c2ccccc2C1=O)OCC(=O)c1ccccc1Cl`, the “apparent turnover number kcat” value was 4.46.

Take `CC(=O)c1cccc(N(CC(=O)Nc2cccnc2)S(C)(=O)=O)c1`: the “apparent turnover number kcat” value was determined as 4.54. In the case of `Cc1ccc(C)c(C(=O)CSc2nnnn2-c2ccccc2)c1`, the “apparent turnover number kcat” value amounted to 5.29. `CC(=O)c1ccc(NCN2C(=O)c3ccc([N+](=O)[O-])cc3C2=O)cc1`: the “apparent turnover number kcat” value came to 3.34.

With `O=C([O-])CN1C(=O)c2ccc(C(=O)c3cccc([N+](=O)[O-])c3)cc2C1=O`, the “apparent turnover number kcat” value is 3.5. The figure for `O=C(Nc1ccc2ccccc2c1)C(=O)C1C(=O)Nc2ccccc21` (stereo not given) is 3.81; for `O=C(CN1C(=O)c2ccccc2C1=O)OCC(=O)c1ccc(Cl)cc1Cl` it is 7.04; for `Cc1ccc(C(=O)C2=C(O)C(=O)N(C)C2c2ccccc2[N+](=O)[O-])cc1` (stereo not given) it is 8.75. The same measure for `Cc1ccc2c(c1)C(=O)C(=O)N2CCOc1ccc2ccccc2c1`: 4.38; for `O=C1NC(=O)C(=NNc2ccc(C(=O)c3ccccc3)cc2)C(=O)N1`: 4.66. The same measure for `O=C(CN1C(=O)c2cc(Br)c([N+](=O)[O-])cc2C1=O)OCC(=O)c1ccccc1`: 3.14; for `O=C(CNC(=O)C1Cc2ccccc2C(=O)O1)c1cccs1` (stereo not given): 5.57. For the compound `O=C1C(=Cc2ccccc2OC(F)F)C(=O)c2ccccc21`, the “apparent turnover number kcat” value was 2.91. Turning to `Cc1ccnc(NC(=O)COC(=O)CN2C(=O)C(=O)c3ccccc32)c1`, the “apparent turnover number kcat” value amounted to 5.54. The same measure for `CC(=O)c1ccc(Sc2ccccn2)c([N+](=O)[O-])c1`: 4.51. As for `O=C(COc1ccc([N+](=O)[O-])cc1)c1ccc(O)cc1O`, the “apparent turnover number kcat” value was found to be 4.37.

For `Cc1ccc2c(c1)CCCN2C(=O)CN1C(=O)C(=O)c2ccccc21`, the “apparent turnover number kcat” value worked out at 4.88. With `O=C(CSc1ncnc2[nH]cnc12)c1ccc2ccccc2c1`, the “apparent turnover number kcat” value was 3.29. On to `O=C(COC(=O)c1n[nH]c2ccccc12)c1c[nH]c2ccccc12`, for which the “apparent turnover number kcat” value stood at 4.48. Take `COc1ccc(C(C)=O)cc1CSc1nc(O)cc(O)n1`: the “apparent turnover number kcat” value amounted to 4.23. On to `CC1(C)CC(=O)c2c(oc3ccc(NS(=O)(=O)c4cc([N+](=O)[O-])ccc4Cl)cc23)C1`, for which the “apparent turnover number kcat” value stood at 4.81. In the case of `CC1=C(C(=O)c2ccccc2)C(c2ccc(Cl)c([N+](=O)[O-])c2)NC(=O)N1` (stereo not given), the “apparent turnover number kcat” value was found to be 4.99. The figure for `CC(=O)c1cccc(NS(=O)(=O)c2ccccc2C#N)c1` is 4.65. The figure for `CC(=O)c1ccc(NS(=O)(=O)c2cc(C(=O)[O-])ccc2Cl)cc1` is 7.42. In the case of `CC(=O)c1cccc(NC(=O)c2ccc(-c3cc(Cl)ccc3Cl)o2)c1`, the “apparent turnover number kcat” value was 2.94. `O=C(Cn1ccn(-c2ccc3c(c2)OCO3)c(=O)c1=O)c1ccc(F)cc1`: the “apparent turnover number kcat” value was found to be 3.92. The figure for `O=C(CSc1nc(-c2ccc([N+](=O)[O-])cc2)c[nH]1)c1ccc(O)c(O)c1` is 5.56; for `O=C([O-])CN1C(=O)C(O)=C(C(=O)c2ccc([N+](=O)[O-])cc2)C1c1ccc(Br)cc1` (stereo not given) it is 5.48; for `O=C(Cn1nnc([N+](=O)[O-])n1)c1ccccc1` it is 4.88. As to `CC(=O)N(C1=C(Cl)C(=O)c2ccccc2C1=O)c1ccc(F)c(F)c1`, the “apparent turnover number kcat” value came to 5.25. With `CC(=O)c1ccc(NS(=O)(=O)c2cccc(C(C)=O)c2)cc1`, the “apparent turnover number kcat” value was determined as 5.01. As for `O=C(CN(C(=O)c1ccccc1)N1C(=O)CCC1=O)c1ccccc1`, the “apparent turnover number kcat” value was 4.34.

With `COc1ccccc1N1C(=O)c2ccc(C(=O)OCC(=O)c3ccc4ccccc4c3)cc2C1=O`, the “apparent turnover number kcat” value was found to be 4.34. On to `Cc1cc(C)c2c(O)nc(SCC(=O)c3ccc(O)c(O)c3)nc2n1`, for which the “apparent turnover number kcat” value stood at 0.0624.

For the compound `O=C(CC(C(=O)O)n1cnc([N+](=O)[O-])n1)c1ccc(Br)cc1` (stereo not given), the “apparent turnover number kcat” value was determined as 4.39. The figure for `Cc1ccc(C(=O)COc2ccc(-c3cnc4ccccc4n3)cc2)cc1C` is 5.17; for `COc1ccc(C(=O)COC(=O)CN2C(=O)c3cccc([N+](=O)[O-])c3C2=O)cc1` it is 3.33.
